Laboratory results as given in the supplement of paper PMC6078165.
± gives the standard deviation of the averaged measurements. The reference is the same well before dosing, and untreated signal decays as well.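 The cancer cells are triple-negative breast cancer lines of basal-like or mesenchymal-like type, grown without fibroblasts. A drop in red signal reflects loss of mitochondrial integrity, a stand-in for apoptotic death.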

Tests used:
[1] = test system: Hs578T; experiment: relative JC-1 red fluorescence (viability) vs pre-drug, monoculture (fraction); higher = more viable cancer cells; conditions: coculture fibroblast: none (monoculture)
Experimental: (§1)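 JC-1 labelled TNBC cells grown in monoculture (density kept equal with unlabelled cancer cells) in 384-well plates in FluoroBrite medium, treated with one of 42 anticancer drugs at 0.1, 1, 10 or 100 uM. JC-1 red fluorescence (mitochondrial integrity, surrogate of apoptotic death) was read by plate reader every 8 h for 72 h. Values are normalised to each well's pre-drug value, with background from alamethicin. The stock of one drug was tenfold lower, so its dose labels may be too high. Monoculture values are repeated alongside each fibroblast plate and are averaged here.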

[2] = test system: HCC1143; experiment: as above; conditions: coculture fibroblast: none (monoculture)
Experimental: as §1

CCc1c2c(nc3ccc(OC(=O)N4CCC(N5CCCCC5)CC4)cc13)-c1cc3c(c(=O)n1C2)COC(=O)[C@]3(O)CC [Irinotecan]
relative JC-1 red fluorescence
Conditions	8 h	16 h	24 h	32 h	40 h	48 h	56 h	64 h	72 h
[1], 0.1 µM	0.825 ± 0.032	0.698 ± 0.024	0.662 ± 0.02	0.6 ± 0.01	0.566 ± 0.012	0.55 ± 0.018	0.528 ± 0.015	0.525 ± 0.017	0.525 ± 0.02
[1], 1 µM	0.81 ± 0.05	0.674 ± 0.024	0.633 ± 0.022	0.549 ± 0.016	0.508 ± 0.017	0.478 ± 0.022	0.461 ± 0.024	0.469 ± 0.031	0.471 ± 0.026
[1], 10 µM	0.878 ± 0.025	0.7588 ± 0.0071	0.754 ± 0.039	0.687 ± 0.035	0.656 ± 0.038	0.644 ± 0.044	0.626 ± 0.052	0.624 ± 0.061	0.619 ± 0.069
[1], 100 µM	0.8479 ± 0.0016	0.832 ± 0.015	0.8 ± 0.012	0.724 ± 0.021	0.669 ± 0.02	0.626 ± 0.014	0.594 ± 0.023	0.599 ± 0.033	0.586 ± 0.044
[2], 0.1 µM	0.916 ± 0.013	0.831 ± 0.012	0.778 ± 0.022	0.74 ± 0.027	0.694 ± 0.031	0.666 ± 0.029	0.643 ± 0.025	0.631 ± 0.029	0.631 ± 0.028
[2], 1 µM	0.8682 ± 0.004	0.759 ± 0.0078	0.674 ± 0.014	0.617 ± 0.015	0.564 ± 0.022	0.528 ± 0.027	0.5 ± 0.034	0.48 ± 0.036	0.465 ± 0.037
[2], 10 µM	0.9149 ± 0.0082	0.8381 ± 0.0013	0.793 ± 0.012	0.752 ± 0.012	0.7103 ± 0.0062	0.69 ± 0.0092	0.6626 ± 0.0058	0.6529 ± 0.0046	0.642 ± 0.011
[2], 100 µM	0.937 ± 0.013	0.904 ± 0.038	0.805 ± 0.015	0.712 ± 0.0092	0.666 ± 0.0092	0.655 ± 0.004	0.647 ± 0.0078	0.6482 ± 0.0011	0.641 ± 0.017

COc1cc([C@@H]2c3cc4c(cc3[C@@H](O[C@@H]3O[C@@H]5CO[C@@H](c6cccs6)O[C@H]5[C@H](O)[C@H]3O)[C@H]3COC(=O)[C@H]23)OCO4)cc(OC)c1O [Teniposide]
relative JC-1 red fluorescence
Conditions	8 h	16 h	24 h	32 h	40 h	48 h	56 h	64 h	72 h
[1], 0.1 µM	0.829 ± 0.026	0.7194 ± 0.0016	0.715 ± 0.013	0.62 ± 0.012	0.584 ± 0.0094	0.564 ± 0.013	0.538 ± 0.0092	0.545 ± 0.011	0.533 ± 0.0057
[1], 1 µM	0.7932 ± 0.0072	0.687 ± 0.021	0.6534 ± 0.0061	0.5729 ± 0.0015	0.522 ± 0.007	0.501 ± 0.01	0.4739 ± 0.0043	0.481 ± 0.011	0.476 ± 0.009
[1], 10 µM	0.876 ± 0.038	0.824 ± 0.011	0.8227 ± 0.0073	0.764 ± 0.0099	0.725 ± 0.018	0.707 ± 0.028	0.679 ± 0.04	0.672 ± 0.057	0.663 ± 0.077
[1], 100 µM	0.882 ± 0.014	0.843 ± 0.012	0.8966 ± 0.0011	0.8368 ± 0.0041	0.8257 ± 0.0037	0.8207 ± 0.0019	0.809 ± 0.01	0.816 ± 0.042	0.826 ± 0.043
[2], 0.1 µM	0.85 ± 0.021	0.7894 ± 0.0018	0.7484 ± 0.0057	0.694 ± 0.0077	0.658 ± 0.01	0.631 ± 0.012	0.621 ± 0.011	0.616 ± 0.018	0.606 ± 0.021
[2], 1 µM	0.847 ± 0.012	0.772 ± 0.016	0.739 ± 0.022	0.713 ± 0.026	0.677 ± 0.019	0.669 ± 0.018	0.661 ± 0.019	0.676 ± 0.02	0.676 ± 0.013
[2], 10 µM	0.9036 ± 0.0035	0.8362 ± 0.0053	0.779 ± 0.011	0.717 ± 0.021	0.645 ± 0.021	0.621 ± 0.015	0.594 ± 0.013	0.582 ± 0.022	0.577 ± 0.016
[2], 100 µM	0.848 ± 0.018	0.777 ± 0.024	0.725 ± 0.038	0.721 ± 0.04	0.707 ± 0.035	0.722 ± 0.038	0.712 ± 0.028	0.698 ± 0.041	0.696 ± 0.048
